# The other results are listed elsewhere or left out.
# By UniProt entry, the sequences of proteins in these tests, tags left out. Where a name states a change or a piece, a line headed by the entry shows the natural chain unless it says otherwise.
# UniProt Q9BVK6: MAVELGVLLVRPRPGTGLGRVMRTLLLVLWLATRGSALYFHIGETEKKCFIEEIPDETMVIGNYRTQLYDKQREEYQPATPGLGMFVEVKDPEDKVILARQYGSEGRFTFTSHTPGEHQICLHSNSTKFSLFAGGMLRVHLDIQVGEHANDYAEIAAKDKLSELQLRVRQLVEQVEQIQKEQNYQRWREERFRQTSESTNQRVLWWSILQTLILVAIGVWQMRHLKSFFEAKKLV
# UniProt Q9HCD6: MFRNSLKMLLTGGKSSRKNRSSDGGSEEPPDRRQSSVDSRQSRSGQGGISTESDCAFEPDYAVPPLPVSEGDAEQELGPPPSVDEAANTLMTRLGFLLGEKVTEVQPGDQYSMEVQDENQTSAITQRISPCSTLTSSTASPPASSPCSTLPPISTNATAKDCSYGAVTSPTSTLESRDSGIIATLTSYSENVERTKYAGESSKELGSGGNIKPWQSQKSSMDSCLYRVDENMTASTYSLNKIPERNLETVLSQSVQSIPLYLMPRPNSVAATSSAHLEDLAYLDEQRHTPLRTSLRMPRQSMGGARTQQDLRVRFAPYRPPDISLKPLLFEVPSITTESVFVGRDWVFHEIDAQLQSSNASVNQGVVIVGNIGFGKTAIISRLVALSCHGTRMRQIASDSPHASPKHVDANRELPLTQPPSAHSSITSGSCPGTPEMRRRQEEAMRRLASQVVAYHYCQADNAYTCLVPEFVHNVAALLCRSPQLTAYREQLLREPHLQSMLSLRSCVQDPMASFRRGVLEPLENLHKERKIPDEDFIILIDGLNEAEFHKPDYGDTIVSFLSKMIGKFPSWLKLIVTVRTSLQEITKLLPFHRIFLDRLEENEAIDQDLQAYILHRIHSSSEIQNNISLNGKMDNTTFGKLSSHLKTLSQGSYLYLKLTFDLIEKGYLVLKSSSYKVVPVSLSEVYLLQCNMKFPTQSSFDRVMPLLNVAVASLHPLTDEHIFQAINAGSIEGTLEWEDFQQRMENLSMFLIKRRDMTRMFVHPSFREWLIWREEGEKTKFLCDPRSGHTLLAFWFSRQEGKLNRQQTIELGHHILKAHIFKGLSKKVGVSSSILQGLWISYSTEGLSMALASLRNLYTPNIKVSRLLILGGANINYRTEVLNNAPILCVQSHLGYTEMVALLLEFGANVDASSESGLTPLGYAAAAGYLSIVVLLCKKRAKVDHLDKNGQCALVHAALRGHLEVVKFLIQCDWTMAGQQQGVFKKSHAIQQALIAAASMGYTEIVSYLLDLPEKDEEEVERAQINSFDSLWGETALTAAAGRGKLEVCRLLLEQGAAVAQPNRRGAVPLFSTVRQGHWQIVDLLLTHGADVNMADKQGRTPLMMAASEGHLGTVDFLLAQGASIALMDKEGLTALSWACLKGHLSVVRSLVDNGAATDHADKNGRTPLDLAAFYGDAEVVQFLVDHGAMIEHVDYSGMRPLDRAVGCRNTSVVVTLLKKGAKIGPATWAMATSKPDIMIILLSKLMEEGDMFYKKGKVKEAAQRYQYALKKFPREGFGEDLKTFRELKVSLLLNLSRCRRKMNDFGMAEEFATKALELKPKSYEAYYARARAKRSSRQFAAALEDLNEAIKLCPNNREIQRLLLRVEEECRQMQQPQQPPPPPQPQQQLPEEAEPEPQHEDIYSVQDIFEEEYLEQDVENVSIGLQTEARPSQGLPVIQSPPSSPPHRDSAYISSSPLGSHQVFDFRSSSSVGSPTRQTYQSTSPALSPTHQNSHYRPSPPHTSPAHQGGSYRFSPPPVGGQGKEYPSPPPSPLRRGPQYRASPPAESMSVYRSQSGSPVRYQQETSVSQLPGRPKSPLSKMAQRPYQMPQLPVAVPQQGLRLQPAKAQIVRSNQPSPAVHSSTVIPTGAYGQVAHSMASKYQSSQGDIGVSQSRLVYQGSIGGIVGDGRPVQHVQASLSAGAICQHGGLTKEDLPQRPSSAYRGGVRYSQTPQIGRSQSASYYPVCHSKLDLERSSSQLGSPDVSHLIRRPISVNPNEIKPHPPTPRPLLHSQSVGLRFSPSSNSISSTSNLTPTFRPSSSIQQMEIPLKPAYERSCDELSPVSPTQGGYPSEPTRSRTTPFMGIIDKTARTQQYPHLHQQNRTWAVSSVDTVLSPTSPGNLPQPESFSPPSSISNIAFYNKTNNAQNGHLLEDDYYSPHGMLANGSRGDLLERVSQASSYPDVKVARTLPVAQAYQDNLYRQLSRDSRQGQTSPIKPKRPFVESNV
# UniProt Q96S44: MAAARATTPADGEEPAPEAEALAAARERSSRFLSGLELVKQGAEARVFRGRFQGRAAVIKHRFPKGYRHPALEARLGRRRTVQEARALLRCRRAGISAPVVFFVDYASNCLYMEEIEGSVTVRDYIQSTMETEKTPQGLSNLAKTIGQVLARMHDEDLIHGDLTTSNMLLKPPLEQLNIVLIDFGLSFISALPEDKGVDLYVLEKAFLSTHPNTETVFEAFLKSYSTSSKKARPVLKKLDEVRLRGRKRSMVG
# UniProt O14524: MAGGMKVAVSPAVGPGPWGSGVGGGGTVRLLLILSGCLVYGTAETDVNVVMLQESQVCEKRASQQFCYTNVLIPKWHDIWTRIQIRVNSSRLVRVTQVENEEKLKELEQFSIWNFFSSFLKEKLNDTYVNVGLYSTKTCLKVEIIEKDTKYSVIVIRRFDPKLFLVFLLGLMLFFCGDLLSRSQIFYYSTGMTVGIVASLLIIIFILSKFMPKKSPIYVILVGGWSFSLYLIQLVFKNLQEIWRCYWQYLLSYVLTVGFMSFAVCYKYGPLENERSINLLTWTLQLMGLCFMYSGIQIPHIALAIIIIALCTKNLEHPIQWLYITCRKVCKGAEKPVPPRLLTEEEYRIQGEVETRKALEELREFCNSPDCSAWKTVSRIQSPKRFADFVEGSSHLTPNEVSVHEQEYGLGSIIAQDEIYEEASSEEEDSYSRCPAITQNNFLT
# UniProt Q5T1C6: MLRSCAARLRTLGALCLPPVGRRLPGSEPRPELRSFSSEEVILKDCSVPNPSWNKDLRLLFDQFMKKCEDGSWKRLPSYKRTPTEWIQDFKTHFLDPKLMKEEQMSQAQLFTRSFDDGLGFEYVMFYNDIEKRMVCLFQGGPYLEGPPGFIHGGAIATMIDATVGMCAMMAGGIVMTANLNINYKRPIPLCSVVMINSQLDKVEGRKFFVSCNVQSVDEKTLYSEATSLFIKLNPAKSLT
# UniProt P36897: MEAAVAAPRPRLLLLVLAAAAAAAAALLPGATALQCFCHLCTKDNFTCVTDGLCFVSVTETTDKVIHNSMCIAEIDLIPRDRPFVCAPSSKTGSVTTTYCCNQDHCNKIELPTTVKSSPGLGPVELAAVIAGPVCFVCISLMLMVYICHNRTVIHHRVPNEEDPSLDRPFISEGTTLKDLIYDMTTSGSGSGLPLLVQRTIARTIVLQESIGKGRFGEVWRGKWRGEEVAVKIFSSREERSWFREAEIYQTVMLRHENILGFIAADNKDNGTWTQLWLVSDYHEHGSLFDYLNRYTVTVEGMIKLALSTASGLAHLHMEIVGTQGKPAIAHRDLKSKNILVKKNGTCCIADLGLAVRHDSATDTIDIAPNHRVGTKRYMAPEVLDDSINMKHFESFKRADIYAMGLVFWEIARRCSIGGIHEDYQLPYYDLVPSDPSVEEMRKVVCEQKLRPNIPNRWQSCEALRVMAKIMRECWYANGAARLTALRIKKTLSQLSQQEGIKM
# UniProt P04183: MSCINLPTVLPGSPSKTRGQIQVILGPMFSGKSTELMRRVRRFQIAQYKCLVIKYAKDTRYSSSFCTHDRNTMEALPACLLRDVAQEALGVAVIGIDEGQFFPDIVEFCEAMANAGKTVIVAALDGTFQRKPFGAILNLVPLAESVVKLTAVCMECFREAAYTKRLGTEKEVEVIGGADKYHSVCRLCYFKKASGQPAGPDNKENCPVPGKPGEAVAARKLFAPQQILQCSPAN
# UniProt P06753, whole entry: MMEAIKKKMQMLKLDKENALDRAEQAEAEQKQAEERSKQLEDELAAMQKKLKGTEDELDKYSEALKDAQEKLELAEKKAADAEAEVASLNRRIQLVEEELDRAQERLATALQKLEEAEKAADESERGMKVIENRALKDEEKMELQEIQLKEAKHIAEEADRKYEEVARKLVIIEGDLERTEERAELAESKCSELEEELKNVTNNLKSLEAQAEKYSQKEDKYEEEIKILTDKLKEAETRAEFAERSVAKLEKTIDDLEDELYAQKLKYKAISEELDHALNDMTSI
# UniProt A2RTX5: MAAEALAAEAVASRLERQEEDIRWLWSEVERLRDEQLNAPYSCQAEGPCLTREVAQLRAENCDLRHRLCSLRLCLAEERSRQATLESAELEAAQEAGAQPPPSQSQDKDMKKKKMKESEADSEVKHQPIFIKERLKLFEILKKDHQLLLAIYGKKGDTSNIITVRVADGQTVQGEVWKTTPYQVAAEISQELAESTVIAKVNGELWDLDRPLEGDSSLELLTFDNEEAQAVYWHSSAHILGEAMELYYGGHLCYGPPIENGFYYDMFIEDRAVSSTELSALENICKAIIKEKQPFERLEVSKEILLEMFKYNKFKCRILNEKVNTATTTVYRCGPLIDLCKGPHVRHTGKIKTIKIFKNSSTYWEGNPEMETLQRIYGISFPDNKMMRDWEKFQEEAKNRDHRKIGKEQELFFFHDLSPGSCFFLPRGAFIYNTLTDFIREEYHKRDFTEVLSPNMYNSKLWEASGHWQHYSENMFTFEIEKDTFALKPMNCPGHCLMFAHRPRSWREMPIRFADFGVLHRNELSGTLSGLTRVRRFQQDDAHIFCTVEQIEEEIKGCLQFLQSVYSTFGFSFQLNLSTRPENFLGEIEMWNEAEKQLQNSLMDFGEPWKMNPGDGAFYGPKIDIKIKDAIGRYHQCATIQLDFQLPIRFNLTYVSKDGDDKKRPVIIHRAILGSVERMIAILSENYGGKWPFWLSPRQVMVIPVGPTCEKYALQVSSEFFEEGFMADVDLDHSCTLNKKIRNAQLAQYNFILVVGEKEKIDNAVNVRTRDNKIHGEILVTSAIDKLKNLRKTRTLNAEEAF
# UniProt Q96J01: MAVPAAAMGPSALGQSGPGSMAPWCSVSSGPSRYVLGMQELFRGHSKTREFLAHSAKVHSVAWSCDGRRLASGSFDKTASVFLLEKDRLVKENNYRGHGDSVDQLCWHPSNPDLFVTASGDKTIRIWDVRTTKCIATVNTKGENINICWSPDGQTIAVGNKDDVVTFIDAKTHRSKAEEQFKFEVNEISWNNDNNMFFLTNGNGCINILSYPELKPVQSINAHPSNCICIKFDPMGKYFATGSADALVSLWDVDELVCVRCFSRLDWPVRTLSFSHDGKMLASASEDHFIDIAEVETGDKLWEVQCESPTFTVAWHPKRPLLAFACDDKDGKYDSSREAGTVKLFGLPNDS
# UniProt P29144: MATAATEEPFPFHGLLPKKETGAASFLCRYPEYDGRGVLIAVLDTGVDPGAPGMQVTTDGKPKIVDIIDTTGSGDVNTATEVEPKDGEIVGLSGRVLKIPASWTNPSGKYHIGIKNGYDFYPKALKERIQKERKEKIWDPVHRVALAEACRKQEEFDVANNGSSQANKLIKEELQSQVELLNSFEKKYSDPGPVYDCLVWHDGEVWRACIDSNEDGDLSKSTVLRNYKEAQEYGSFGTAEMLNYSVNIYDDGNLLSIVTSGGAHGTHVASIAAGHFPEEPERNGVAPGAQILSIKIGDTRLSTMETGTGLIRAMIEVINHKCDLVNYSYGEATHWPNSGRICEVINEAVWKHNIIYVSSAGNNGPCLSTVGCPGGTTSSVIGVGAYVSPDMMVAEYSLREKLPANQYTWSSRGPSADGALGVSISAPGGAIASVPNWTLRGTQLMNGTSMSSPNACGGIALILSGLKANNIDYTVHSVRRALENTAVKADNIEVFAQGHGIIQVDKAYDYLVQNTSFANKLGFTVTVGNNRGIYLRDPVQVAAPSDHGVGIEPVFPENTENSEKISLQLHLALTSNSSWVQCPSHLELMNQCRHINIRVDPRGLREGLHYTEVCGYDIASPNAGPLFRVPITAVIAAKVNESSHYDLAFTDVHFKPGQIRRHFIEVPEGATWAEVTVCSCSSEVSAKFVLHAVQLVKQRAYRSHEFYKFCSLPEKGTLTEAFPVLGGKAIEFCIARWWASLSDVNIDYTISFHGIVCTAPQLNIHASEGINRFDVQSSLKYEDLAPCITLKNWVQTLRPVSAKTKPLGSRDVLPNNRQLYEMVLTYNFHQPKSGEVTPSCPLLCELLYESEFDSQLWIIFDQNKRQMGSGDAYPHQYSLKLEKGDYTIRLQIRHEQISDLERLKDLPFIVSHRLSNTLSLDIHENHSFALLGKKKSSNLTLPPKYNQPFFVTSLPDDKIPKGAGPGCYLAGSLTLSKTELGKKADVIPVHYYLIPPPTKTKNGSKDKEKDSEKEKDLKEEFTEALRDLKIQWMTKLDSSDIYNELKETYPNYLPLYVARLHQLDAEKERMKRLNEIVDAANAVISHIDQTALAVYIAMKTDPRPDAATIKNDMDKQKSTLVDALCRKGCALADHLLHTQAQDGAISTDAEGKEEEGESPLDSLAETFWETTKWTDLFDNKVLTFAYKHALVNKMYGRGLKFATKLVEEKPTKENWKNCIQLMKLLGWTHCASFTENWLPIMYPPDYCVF
# Compound: COc1ccc(Cn2ccc3ccc(C(=O)NO)cc32)cc1
# Experiment: dose-dependent thermal stabilisation call (2D-TPP, DLPTP, 10% FDR) (binary (1 = stabilised)); higher = stabilised by the compound
# Details: system: HL-60 intact cells; concentration range 0.04-10 µM
row,Target,dose-dependent thermal stabilisation call
1,TOE1 (UniProt Q96GM8),inactive: 0
2,TMED10 (UniProt P49755),inactive: 0
3,TOMM5 (UniProt Q8N4H5),inactive: 0
4,TMED9 (UniProt Q9BVK6),inactive: 0
5,TANC2 (UniProt Q9HCD6),inactive: 0
6,TOMM22 (UniProt Q9NS69),inactive: 0
7,TALDO1 (UniProt P37837),inactive: 0
8,TOR2A,inactive: 0
9,TMSL3,inactive: 0
10,TMTC4 (UniProt Q5T4D3),inactive: 0
11,TP53RK (UniProt Q96S44),inactive: 0
12,TARS2 (UniProt Q9BW92),inactive: 0
13,TNFAIP8 (UniProt O95379),inactive: 0
14,THUMPD2 (UniProt Q9BTF0),inactive: 0
15,TMPO,inactive: 0
16,TMEM194A (UniProt O14524),inactive: 0
17,THEM4 (UniProt Q5T1C6),active: 1
18,TBPL1 (UniProt P62380),inactive: 0
19,TPP1 (UniProt O14773),inactive: 0

# Random excerpt: 3 entries already listed
row,Target,dose-dependent thermal stabilisation call
2,TMED10 (UniProt P49755),inactive: 0
7,TALDO1 (UniProt P37837),inactive: 0
9,TMSL3,inactive: 0

# Continued:

row,Target,dose-dependent thermal stabilisation call
1,THOC6 (UniProt Q86W42),inactive: 0
2,TGFBR1 (UniProt P36897),inactive: 0
3,TK1 (UniProt P04183),inactive: 0
4,TPM3 (UniProt P06753),inactive: 0
5,TMEM87A (UniProt Q8NBN3),inactive: 0
6,TJAP1 (UniProt Q5JTD0),inactive: 0
7,TNFAIP8L2 (UniProt Q6P589),inactive: 0
8,TBC1D24 (UniProt Q9ULP9),inactive: 0
9,TARSL2 (UniProt A2RTX5),active: 1
10,TIMM17B (UniProt O60830),inactive: 0
11,TPCN1 (UniProt Q9ULQ1),inactive: 0
12,TMEM48 (UniProt Q9BTX1),inactive: 0
13,TAGLN2 (UniProt P37802),inactive: 0
14,THOC3 (UniProt Q96J01),inactive: 0
15,TPP2 (UniProt P29144),inactive: 0
16,TNPO3 (UniProt Q9Y5L0),inactive: 0
17,TARS (UniProt P26639),inactive: 0
18,TDRKH (UniProt Q9Y2W6),inactive: 0
19,TBC1D4 (UniProt O60343),inactive: 0

# Reference: the supplement of paper PMC7666118
